# Data published in the supplement of paper PMC12067093, “Discovery and optimisation of a covalent ligand for TRIM25 and its application to targeted protein ubiquitination” (Chemical Science, 2025).
# Amino acid sequences for entries named in this document (tags omitted). A change or cut given only in a name is not applied to a line headed by its entry.
# UniProt Q9BT23: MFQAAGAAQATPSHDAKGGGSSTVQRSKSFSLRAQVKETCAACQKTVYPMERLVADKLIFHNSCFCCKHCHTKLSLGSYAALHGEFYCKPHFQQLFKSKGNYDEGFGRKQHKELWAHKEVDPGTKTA
# UniProt P49917: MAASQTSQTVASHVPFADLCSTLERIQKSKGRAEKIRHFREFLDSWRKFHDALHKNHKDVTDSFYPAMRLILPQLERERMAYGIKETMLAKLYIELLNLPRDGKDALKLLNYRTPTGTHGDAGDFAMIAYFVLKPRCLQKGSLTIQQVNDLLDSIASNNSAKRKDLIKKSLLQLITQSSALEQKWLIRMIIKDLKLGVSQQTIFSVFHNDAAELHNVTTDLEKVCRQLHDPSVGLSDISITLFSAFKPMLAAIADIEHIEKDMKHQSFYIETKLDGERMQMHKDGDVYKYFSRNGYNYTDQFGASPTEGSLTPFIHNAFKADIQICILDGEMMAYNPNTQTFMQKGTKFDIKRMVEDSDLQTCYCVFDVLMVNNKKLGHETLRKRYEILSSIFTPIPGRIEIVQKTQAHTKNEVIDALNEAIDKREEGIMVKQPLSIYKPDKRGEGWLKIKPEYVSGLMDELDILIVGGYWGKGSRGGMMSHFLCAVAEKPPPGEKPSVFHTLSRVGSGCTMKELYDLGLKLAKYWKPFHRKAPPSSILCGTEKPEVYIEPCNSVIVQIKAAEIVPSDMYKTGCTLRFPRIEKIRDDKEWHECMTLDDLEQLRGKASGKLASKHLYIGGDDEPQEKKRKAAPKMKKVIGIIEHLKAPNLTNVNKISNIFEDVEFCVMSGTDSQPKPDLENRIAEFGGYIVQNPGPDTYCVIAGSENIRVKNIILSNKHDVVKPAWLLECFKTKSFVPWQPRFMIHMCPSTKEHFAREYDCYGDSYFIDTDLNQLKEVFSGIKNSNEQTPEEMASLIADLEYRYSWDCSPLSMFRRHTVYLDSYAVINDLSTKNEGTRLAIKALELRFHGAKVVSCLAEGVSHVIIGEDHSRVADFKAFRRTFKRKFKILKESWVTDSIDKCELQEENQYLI
# UniProt P50851: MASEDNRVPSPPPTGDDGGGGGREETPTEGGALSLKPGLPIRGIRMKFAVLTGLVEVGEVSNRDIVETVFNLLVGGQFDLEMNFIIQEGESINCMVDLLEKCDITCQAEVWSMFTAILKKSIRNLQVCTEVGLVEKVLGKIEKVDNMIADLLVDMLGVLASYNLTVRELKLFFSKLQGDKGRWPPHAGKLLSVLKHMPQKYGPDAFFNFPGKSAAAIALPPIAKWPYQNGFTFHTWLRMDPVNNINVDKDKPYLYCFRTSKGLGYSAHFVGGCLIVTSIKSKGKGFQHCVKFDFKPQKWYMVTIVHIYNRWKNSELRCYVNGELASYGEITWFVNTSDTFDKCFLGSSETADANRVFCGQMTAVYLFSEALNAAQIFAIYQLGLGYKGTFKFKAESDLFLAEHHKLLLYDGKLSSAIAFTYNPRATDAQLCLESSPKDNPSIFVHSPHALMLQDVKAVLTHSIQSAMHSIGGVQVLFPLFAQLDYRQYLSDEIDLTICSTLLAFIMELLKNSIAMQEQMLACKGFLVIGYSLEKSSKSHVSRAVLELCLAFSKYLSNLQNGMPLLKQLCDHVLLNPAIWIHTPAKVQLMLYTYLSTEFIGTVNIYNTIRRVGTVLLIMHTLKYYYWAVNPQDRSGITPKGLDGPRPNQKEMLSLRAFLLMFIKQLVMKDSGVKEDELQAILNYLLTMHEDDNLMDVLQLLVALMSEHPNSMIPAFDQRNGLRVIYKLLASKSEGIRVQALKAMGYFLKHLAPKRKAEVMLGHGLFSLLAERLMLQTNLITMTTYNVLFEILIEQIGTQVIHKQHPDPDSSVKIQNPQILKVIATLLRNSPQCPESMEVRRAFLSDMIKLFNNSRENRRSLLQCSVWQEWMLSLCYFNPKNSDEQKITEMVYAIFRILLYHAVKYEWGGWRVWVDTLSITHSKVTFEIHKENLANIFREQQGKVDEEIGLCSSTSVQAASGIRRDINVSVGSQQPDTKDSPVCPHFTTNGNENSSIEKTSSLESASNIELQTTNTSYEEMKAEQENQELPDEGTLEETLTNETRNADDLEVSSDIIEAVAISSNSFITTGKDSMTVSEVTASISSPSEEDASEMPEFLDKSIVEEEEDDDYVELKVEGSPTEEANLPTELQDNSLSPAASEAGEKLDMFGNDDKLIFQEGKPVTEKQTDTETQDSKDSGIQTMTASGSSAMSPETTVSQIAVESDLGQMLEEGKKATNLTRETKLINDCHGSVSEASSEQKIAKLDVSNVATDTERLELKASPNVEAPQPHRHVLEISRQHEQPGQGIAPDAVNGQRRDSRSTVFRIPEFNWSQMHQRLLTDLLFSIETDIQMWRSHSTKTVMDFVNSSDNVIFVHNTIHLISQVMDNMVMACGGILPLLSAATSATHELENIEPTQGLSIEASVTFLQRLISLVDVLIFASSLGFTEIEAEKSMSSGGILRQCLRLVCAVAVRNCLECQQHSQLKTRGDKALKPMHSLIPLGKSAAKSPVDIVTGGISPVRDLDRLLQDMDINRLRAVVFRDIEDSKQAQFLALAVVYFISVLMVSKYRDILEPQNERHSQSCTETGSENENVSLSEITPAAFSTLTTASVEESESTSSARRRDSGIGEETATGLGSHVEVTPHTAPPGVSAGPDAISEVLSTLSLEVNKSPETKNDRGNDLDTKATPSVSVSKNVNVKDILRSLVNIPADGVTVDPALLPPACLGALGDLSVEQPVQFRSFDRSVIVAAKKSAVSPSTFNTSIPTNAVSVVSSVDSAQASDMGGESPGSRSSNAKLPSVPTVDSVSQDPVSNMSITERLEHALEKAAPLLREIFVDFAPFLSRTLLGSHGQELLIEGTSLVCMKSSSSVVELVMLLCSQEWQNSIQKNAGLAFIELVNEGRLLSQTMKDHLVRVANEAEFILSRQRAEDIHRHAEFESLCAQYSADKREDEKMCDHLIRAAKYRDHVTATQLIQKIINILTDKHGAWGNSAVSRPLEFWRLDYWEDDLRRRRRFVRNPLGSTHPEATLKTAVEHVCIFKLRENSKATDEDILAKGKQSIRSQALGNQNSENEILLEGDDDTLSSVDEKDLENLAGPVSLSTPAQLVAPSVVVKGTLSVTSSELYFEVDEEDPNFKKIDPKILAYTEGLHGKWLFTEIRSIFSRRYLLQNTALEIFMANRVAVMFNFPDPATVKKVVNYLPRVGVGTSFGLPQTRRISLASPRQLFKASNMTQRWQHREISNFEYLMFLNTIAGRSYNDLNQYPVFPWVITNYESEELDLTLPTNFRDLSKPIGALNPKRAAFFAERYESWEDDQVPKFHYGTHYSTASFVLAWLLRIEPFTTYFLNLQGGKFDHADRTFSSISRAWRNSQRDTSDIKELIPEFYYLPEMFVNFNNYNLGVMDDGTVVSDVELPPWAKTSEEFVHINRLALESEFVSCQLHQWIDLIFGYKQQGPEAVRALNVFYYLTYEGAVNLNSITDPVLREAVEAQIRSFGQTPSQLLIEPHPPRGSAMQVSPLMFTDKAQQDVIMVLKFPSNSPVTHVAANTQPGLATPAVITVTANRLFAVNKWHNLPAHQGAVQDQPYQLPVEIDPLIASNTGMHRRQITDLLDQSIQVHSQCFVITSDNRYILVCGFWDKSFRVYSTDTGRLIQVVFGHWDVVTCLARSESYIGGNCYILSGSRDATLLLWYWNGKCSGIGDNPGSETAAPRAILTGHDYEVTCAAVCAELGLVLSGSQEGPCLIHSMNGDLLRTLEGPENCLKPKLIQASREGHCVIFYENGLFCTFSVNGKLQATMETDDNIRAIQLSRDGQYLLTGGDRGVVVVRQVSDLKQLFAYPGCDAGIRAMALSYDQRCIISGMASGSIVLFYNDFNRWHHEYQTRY
# UniProt P09382, whole entry, looked up: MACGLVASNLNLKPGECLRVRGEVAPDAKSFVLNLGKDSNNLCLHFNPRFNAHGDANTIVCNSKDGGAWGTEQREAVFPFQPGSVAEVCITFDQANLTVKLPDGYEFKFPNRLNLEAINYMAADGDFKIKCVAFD
# UniProt P48059, whole entry, looked up: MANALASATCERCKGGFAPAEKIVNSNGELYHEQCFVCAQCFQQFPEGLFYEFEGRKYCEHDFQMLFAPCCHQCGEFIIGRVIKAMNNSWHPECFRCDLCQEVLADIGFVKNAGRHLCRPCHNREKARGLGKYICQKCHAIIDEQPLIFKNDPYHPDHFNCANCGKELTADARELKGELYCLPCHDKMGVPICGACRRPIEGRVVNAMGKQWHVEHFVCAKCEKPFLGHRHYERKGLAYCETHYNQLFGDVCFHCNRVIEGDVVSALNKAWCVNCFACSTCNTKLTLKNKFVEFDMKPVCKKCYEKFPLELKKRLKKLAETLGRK
# UniProt Q3ZCW2: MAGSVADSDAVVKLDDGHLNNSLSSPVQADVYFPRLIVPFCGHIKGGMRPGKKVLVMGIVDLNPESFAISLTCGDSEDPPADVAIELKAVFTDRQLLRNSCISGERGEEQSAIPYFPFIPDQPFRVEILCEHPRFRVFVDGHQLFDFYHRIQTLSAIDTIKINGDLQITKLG
# UniProt Q15048: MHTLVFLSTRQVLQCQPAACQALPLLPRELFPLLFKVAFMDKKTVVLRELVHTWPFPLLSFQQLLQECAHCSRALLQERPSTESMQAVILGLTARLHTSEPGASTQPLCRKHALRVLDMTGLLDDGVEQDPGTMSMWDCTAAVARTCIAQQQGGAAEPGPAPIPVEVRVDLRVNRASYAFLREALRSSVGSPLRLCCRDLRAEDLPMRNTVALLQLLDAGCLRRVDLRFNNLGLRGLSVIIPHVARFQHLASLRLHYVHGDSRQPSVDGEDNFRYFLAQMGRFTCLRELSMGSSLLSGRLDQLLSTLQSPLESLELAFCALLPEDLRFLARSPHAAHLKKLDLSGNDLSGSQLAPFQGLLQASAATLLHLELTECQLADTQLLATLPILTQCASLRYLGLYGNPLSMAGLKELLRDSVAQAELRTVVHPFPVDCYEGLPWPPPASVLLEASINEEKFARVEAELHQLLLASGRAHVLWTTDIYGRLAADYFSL
# UniProt Q7L5N7: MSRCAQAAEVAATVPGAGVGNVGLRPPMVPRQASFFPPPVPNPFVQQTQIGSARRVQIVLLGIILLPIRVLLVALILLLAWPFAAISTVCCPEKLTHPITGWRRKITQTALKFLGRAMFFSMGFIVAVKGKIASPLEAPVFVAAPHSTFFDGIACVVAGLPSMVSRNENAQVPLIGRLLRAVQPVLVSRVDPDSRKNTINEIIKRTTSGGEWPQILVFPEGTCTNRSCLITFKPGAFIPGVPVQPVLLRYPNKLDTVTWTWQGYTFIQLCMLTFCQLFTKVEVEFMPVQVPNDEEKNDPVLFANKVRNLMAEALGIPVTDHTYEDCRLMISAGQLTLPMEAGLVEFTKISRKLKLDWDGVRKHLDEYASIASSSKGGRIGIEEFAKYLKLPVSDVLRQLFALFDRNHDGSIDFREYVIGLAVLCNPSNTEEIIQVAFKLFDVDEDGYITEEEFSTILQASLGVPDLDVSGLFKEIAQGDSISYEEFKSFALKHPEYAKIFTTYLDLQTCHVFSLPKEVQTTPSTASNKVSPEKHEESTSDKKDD
# UniProt Q9UGP4: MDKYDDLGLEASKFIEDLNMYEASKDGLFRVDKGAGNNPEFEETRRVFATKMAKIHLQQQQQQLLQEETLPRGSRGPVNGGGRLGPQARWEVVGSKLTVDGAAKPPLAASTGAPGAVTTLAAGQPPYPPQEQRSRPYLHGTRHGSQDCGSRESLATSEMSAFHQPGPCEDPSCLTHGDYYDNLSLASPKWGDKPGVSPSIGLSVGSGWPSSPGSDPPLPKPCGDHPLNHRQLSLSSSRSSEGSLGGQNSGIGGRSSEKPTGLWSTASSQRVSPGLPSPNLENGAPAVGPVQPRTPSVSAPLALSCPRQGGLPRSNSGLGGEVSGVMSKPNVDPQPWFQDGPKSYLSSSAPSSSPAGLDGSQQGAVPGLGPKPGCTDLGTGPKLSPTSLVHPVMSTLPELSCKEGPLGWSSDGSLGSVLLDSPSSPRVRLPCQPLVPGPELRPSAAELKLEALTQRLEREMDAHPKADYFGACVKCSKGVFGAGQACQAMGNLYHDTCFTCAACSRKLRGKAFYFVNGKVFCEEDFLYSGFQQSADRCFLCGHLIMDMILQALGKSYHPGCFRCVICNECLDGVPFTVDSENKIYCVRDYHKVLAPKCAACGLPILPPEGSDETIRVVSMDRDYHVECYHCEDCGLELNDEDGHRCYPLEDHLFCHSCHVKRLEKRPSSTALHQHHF
# UniProt Q96AG4: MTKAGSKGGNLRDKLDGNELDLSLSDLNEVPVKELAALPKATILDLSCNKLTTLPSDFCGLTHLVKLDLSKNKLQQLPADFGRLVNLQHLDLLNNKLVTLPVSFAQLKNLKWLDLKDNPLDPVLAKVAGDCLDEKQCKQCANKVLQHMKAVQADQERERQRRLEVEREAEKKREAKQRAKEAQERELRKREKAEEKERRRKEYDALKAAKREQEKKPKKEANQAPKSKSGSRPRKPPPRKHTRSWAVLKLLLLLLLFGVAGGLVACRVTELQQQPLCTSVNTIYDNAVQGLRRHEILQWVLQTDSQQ
# This is one part of the list.
# Compound: CC1Cc2ccccc2N1C(=O)C1CCCN(C1)C(=O)CCl (mixture of isomers) [TRIM25 ligand 11 (diastereomer mixture)]
# Experiment: probe-labelled cysteine peptide fold change vs DMSO (competition) (log2 fold change); higher = less target engagement (more negative = stronger competition)
# Conditions: THP-1, incubation time: 4 h
# 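Note: competitive chemoproteomic profiling in live THP-1 cells with an iodoacetamide desthiobiotin (IA-DTB) probe, comparing probe-labelled peptide intensities in compound-treated cells against DMSO-treated controls.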
Target,probe-labelled cysteine peptide fold change (10 µM),probe-labelled cysteine peptide fold change (50 µM)
LIMD2_Q9BT23_43_ETCAACQK (UniProt Q9BT23),0.141,-0.0114
LRRC40_Q9H9A6_227_HLDCNSNLLETIPPELAGMESLELLYLRR (UniProt Q9H9A6),-0.138,-0.0108
LIG4_P49917_510_VGSGCTMK (UniProt P49917),-0.0615,-0.0366
LRBA_P50851_2820_QLFAYPGCDAGIR (UniProt P50851),0.149,0.144
LRP1_Q07954_2404_CEYDGSHR (UniProt Q07954),0.089,0.0894
LGALS1_P09382_3+17_ACGLVASNLNLKPGECLR (UniProt P09382),-0.114,-0.236
LLGL2_Q6P1M3_280_SLVPYGPFPCK (UniProt Q6P1M3),0.0313,0.0411
LIMS1_P48059_252_GLAYCETHYNQLFGDVCFHCNR (UniProt P48059),0.00679,0.0944
LPCAT1_Q8NF37_216_TCLITFKPGAFIPGAPVQPVVLR (UniProt Q8NF37),-0.0044,0.0543
LETM1_O95202_552_DTAPVLEGLKEEEITKEEIDILSDACSK (UniProt O95202),-0.126,0.018
LRPPRC_P42704_380_EDGPSVFGSFFLQHCVTMNTPVEK (UniProt P42704),0.255,0.117
LNPEP_Q9UIQ6_35_EPCLHPLEPDEVEYEPR (UniProt Q9UIQ6),0.0621,-0.106
LGALSL_Q3ZCW2_130_VEILCEHPR (UniProt Q3ZCW2),0.275,0.0761
LIG4_P49917_593_EWHECMTLDDLEQLR (UniProt P49917),-0.157,-0.026
LRRC14_Q15048_71_ELVHTWPFPLLSFQQLLQECAHCSR (UniProt Q15048),-0.141,0.155
LONP1_P36776_682_ALCGLDESK (UniProt P36776),-0.112,-0.104
LGALSL_Q3ZCW2_41_LIVPFCGHIK (UniProt Q3ZCW2),-0.0785,0.0213
LEMD2_Q8NC56_355_VVCLESAHPR (UniProt Q8NC56),0.00883,-0.113
LPCAT2_Q7L5N7_326_NLMAEALGIPVTDHTYEDCR (UniProt Q7L5N7),0.176,0.185
LMO7_Q8WWI1_98_ASLENGVLLCDLINK (UniProt Q8WWI1),0.347,-0.154
LIMS1_P48059_240_GLAYCETHYNQLFGDVCFHCNR (UniProt P48059),0.0832,-0.0685

Target,probe-labelled cysteine peptide fold change (10 µM),probe-labelled cysteine peptide fold change (50 µM)
LIMS1_P48059_164_NDPYHPDHFNCANCGK (UniProt P48059),-0.0737,-0.0626
LGALS1_P09382_61_FNAHGDANTIVCNSKDGGAWGTEQR (UniProt P09382),-0.522,-0.174
LRRC14_Q15048_221_NTVALLQLLDAGCLR (UniProt Q15048),-0.0645,-0.163
LIMD1_Q9UGP4_148_HGSQDCGSR (UniProt Q9UGP4),0.11,-0.456
LIMD1_Q9UGP4_401_LSPTSLVHPVMSTLPELSCK (UniProt Q9UGP4),-0.0626,-0.356
LRRC47_Q8N1G4_450_YLHLLDGNENYPCLVDADGDVISFPPITNSEK (UniProt Q8N1G4),-0.36,-0.3
LGALS9_O00182_312_GQSFSVWILCEAHCLK (UniProt O00182),0.145,0.157
LSM12_Q3MHD2_17_AAPPGEYFSVGSQVSCR (UniProt Q3MHD2),-0.0369,0.0976
LRRC59_Q96AG4_59_LTTLPSDFCGLTHLVK (UniProt Q96AG4),-0.0457,-0.245
LEO1_Q8WVC0_530_ILPMAGRDPECQR (UniProt Q8WVC0),-0.0888,-0.149
LPCAT2_Q7L5N7_228_SCLITFKPGAFIPGVPVQPVLLR (UniProt Q7L5N7),-0.154,0.0199
LRPPRC_P42704_952_LFECDRDQMYYNLLK (UniProt P42704),0.0136,-0.0249
LGALS1_P09382_17_ACGLVASNLNLKPGECLR (UniProt P09382),-0.0469,-0.0291
LIMK1_P53667_84_YGESCHGCSEQITK (UniProt P53667),0.29,-0.212
LRPPRC_P42704_1043_DILIACR (UniProt P42704),-0.000295,0.0957
LRRC42_Q9Y546_212_DNCLSDAGVR (UniProt Q9Y546),0.0519,0.013
LIPE_Q05469_382_CCLAHLLHK (UniProt Q05469),-0.015,0.0688
LRRC47_Q8N1G4_367_LHEDLCEK (UniProt Q8N1G4),-0.0914,-0.182
LRRC59_Q96AG4_131_VAGDCLDEK (UniProt Q96AG4),0.0169,-0.0381
LRPPRC_P42704_927_LQWFCDR (UniProt P42704),0.0337,0.0237
LRCH1_Q9Y2L9_197_QLMELDVSCNEITALPQQIGQLK (UniProt Q9Y2L9),-0.0522,-0.0716
